The values below come from paper PMC6175577, “BRCT domains of the DNA damage checkpoint proteins TOPBP1/Rad4 display distinct specificities for phosphopeptide ligands” (eLife, 2018).

This experiment has as its target T1, Mdb1 pT113 fluorescein-labelled phosphopeptide (S. pombe).
T1 sequence (peptide, fluorescein on the N-terminus; phosphothreonine at 113): GYGGVMTVPNTPQKPNLQ
As to the kind of experiment: fluorescence polarisation; fluorescein-labelled peptide at 200 nM, increasing concentrations of recombinant protein; room temperature; 25 mM HEPES pH 7.5, 150 mM NaCl, 1 mM EDTA, 0.25 mM TCEP, 0.02% Tween-20; one site-specific binding model; both purified. In general terms: In fluorescence polarisation assays a small probe gives low polarisation when free and higher when bound to something large.

Results are given in words; binding and its absence hold for the method and conditions named.

For “Rad4-BRCT1,2 with both BRCT domains mutated (S. pombe) (domain or fragment)”, the binding entry is on record as “no binding”.
